# Results taken from PubChem BioAssay AID504327 (National Center for Advancing Translational Sciences (NCATS), 2011).
# Sequences of proteins named here, by UniProt entry; tags and fusion partners are left off.
# UniProt Q92830, whole entry, looked up: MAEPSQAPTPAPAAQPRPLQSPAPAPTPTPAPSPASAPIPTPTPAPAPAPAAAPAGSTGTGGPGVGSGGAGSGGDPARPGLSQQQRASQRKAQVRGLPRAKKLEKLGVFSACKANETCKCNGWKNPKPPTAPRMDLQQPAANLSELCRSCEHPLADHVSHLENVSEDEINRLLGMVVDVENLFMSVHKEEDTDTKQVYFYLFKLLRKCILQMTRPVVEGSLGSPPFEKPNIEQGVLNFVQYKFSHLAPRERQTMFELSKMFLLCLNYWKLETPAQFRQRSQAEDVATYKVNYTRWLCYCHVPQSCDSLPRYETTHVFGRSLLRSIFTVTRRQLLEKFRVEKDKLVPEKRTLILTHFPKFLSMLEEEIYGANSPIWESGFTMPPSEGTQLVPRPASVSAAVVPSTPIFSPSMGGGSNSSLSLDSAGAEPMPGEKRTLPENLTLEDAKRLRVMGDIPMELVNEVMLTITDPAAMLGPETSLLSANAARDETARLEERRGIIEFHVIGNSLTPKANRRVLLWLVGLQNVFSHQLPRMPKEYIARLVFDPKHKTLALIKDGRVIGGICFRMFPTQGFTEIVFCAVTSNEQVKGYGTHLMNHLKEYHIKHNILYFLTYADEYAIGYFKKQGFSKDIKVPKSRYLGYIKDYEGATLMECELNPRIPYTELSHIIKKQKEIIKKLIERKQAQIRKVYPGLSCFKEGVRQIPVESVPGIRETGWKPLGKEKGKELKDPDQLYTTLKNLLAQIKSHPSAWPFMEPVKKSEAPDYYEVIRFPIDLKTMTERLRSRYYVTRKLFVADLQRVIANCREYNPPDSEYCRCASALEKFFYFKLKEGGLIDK
# Several values for one entry are separate records, joined by “and”; a condition that tells them apart may be missing. Equal values may be shown once. About 820 (0.21%) of roughly 390,000 compounds were called active. This list was built around the results that the source calls inconclusive (neither active nor inactive); the mix of calls is not that of the screen. The call rests on the fitted dose curve; in most records, active means well fitted inhibition curve with a large enough effect; inconclusive means small, poorly fitted or top-dose-only effect, or another doubt; inactive means no such curve, though single readings can be large or run the other way. Potencies beside an inconclusive call are fits to weak or partial responses and may not hold up.
# Molecular target: Histone acetyltransferase KAT2A (Homo sapiens) (UniProt Q92830)
# Test: qHTS Assay for Inhibitors of GCN5L2
# Conditions: GCN5L2 HAT assay, ThioGlo1 CoA-SH fluorescence; activity change, negative = inhibition: at 58.9 µM (top of the series) unless noted
# Outline: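 Enzyme at 20nM final was mixed with library compounds for 15 min at room temperature. Peptide H3(1-25) at 75uM, acetyl-CoA at 70uM and ThioGlo1 at 50uM were then added. Plates were read immediately and after 20 min (Ex340nm/Em540nm).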
# On the % scale 0 is the no-effect control and ±100 the full control effect; potency means the concentration at half of the fitted maximal effect.
Structure (SMILES),"activity change, negative = inhibition",Potency
N#C/C(=C\c1ccncc1)c1nc2ccccc2[nH]1,inactive: -23.2%,–
c1ccc2c(N3CCOCC3)c3c(nc2c1)CCC3,–,"inconclusive: 0.501 µM [inhibitor, single point]"
COCCn1c(=O)cnc2cnc(N3CCNCC3)nc21,–,"inconclusive: 25.1 µM [inhibitor, single point]"
CN([C@@H](Cc1ccc(OS(=O)(=O)c2cccc3cnccc23)cc1)C(=O)N1CCN(c2ccccc2)CC1)S(=O)(=O)c1cccc2cnccc12,–,"inconclusive: 2.82 µM [inhibitor, full curve, poor fit]"
COC(=O)C1=C(C(=O)OC)C(c2ccc(OC)c(OC)c2)c2sc(=O)[nH]c2S1 (stereo not given),–,"inconclusive: 39.8 µM [inhibitor, single point]"
CCCCC(NC(=O)COc1cc2c(c3oc(=O)cc(C)c13)CCC(C)(C)O2)C(=O)O (stereo not given),–,active: 35.5 µM
CC(=O)C1=C(C)NC(=O)NC1c1ccc(OC2CCCC2)cc1 (stereo not given),–,"inconclusive: 0.316 µM [inhibitor, full curve, poor fit]"
Cc1ccc(CNC(=O)c2sc3nc(-c4ccc(F)cc4)ccc3c2N)cc1,–,"inconclusive: 39.8 µM [inhibitor, single point]"
CCOc1ccc(NC(=O)Nc2cc(-c3ccccc3)sc2C(=O)OC)cc1,–,"inconclusive: 39.8 µM [inhibitor, single point]"
O=C(NCCc1ccncc1)C12CC3CC(CC(C3)C1)C2,inactive: 0%,–
O=C(CSc1nnc(COc2ccc(Cl)cc2)o1)N1CCOCC1,–,"inconclusive: 7.08 µM [inhibitor, single point]"
CCOCCCNC(=S)N1CCCC(c2nc3ccc(C)cc3[nH]2)C1 (stereo not given),–,"inconclusive: 5.01 µM [inhibitor, single point]"
CCCn1c(=O)c(C)cn2nc(N)nc12,–,"inconclusive: 39.8 µM [inhibitor, single point] and inconclusive: 31.6 µM [inhibitor, single point]"
Cc1c(-c2ccccc2)c(=O)oc2c(CN3CCCC3)c(O)ccc12,–,active: 35.5 µM
COC(=O)/C(=C\c1ccc([N+](=O)[O-])o1)NC(=O)c1ccccc1,inactive: -9.26%,–
CC(=O)N1c2ccc(S(=O)(=O)N3CCCCC3)cc2CC1C(=O)Nc1ccc(F)cc1C (stereo not given),–,"inconclusive: 8.91 µM [inhibitor, partial curve]"
CC(C)(C)OC(=O)C1=C(CO)CS[C@@H]2[C@H](NC(=O)Cc3ccccc3)C(=O)N12,–,"inconclusive: 28.2 µM [inhibitor, single point]"
COc1cc2c(cc1OC)/C(=C/C(=O)c1cccc([N+](=O)[O-])c1)NCC2,–,"inconclusive: 28.2 µM [inhibitor, single point]"
CCCCNc1c(-c2ccc(SC(C)CC)cc2)nc2cnccn12 (stereo not given),–,"inconclusive: 14.1 µM [inhibitor, partial curve]"
CN1CCN(c2ncc3nc(-c4ccccc4)c(=O)n(CCC#N)c3n2)CC1,–,"inconclusive: 35.5 µM [inhibitor, single point]"
CCCCCCCCCCCCCCCC(=O)N[C@@H](COP(=O)(O)O)C(=O)O,–,active: 1.58 µM
Cc1cc(C)cc(N(CC(=O)NC2CCCCC2)C(=O)c2ccc(C)s2)c1,–,"inconclusive: 35.5 µM [inhibitor, single point]"

# An excerpt of these results, with bars between the fields:
Structure (SMILES) | activity change, negative = inhibition | Potency
CCCCNc1c(-c2ccc(SC(C)CC)cc2)nc2cnccn12 (stereo not given) | – | inconclusive: 14.1 µM [inhibitor, partial curve]
CN1CCN(c2ncc3nc(-c4ccccc4)c(=O)n(CCC#N)c3n2)CC1 | – | inconclusive: 35.5 µM [inhibitor, single point]

# The list goes on.

Structure (SMILES),"activity change, negative = inhibition",Potency
O=C(CSc1nnc(NC(=O)C2CC(=O)N(c3ccc(F)cc3)C2)s1)NCC1CCCO1 (stereo not given),–,"inconclusive: 1.78 µM [inhibitor, full curve, poor fit]"
O=C(CNC(=O)c1ccccc1)OCc1nnc(-c2ccccc2)o1,–,"inconclusive: 6.31 µM [inhibitor, single point]"
Nc1nnnn1/N=C/c1cc([N+](=O)[O-])ccc1O,–,"inconclusive: 0.891 µM [inhibitor, full curve, poor fit]"
CC(=O)c1ccc(S(=O)(=O)NCC(=O)N2CCN(C/C=C/c3ccccc3)CC2)cc1,inactive: 1.25%,–
COC(=O)/C=c1/sc2nc3ccccc3n2c1=O,–,"inconclusive: 25.1 µM [inhibitor, single point]"
Cc1cc(OCC(=O)OCC(=O)N2c3ccccc3NC(=O)C2(C)C)ccc1Cl,–,"inconclusive: 25.1 µM [inhibitor, partial curve]"
CC(C)NC(=O)NC(=O)COC(=O)c1c2c(nc3ccccc13)CCC2,inactive: -4.76%,–
COc1ccc2nc(SCC(=O)N3CC(=O)Nc4ccccc43)c(C#N)cc2c1,–,"inconclusive: 39.8 µM [inhibitor, single point]"
COc1ccc(C(=O)Nc2ccc3c(c2)nc(CCNC(C)=O)n3C)cc1,–,"inconclusive: 39.8 µM [inhibitor, single point]"
CCCCNc1c(-c2ccc(SC(C)CC)cc2)nc2ccccn12 (stereo not given),–,"inconclusive: 31.6 µM [inhibitor, single point]"
COc1cc(OC)cc(-c2c(C#Cc3ccsc3)c3cc(-c4ccc(OC)cc4F)ccc3n2C)c1,–,"inconclusive: 17.8 µM [inhibitor, partial curve]"
O=C1CN(C(=O)COC(=O)c2ccc(N3CCCCCC3)c([N+](=O)[O-])c2)c2ccccc2N1,inactive: -6.44%,–
CCCN1CCc2c(sc(NC(=O)c3ccc(S(=O)(=O)N4CCN(C(=O)OCC)CC4)cc3)c2C(N)=O)C1,inactive: -4.78%,–
Cc1ccc(-c2nn(-c3ccc(F)cc3)cc2C(=O)NCC2CCCO2)cc1 (stereo not given),–,"inconclusive: 25.1 µM [inhibitor, single point]"
CC1CCN(C(=O)c2[nH]cnc2C(=O)Nc2ccc(Cl)cc2)CC1,–,"inconclusive: 39.8 µM [inhibitor, single point]"
CN(C)c1cccc(C(=O)N2CCC(c3ccncc3)CC2)c1,inactive: 0.638%,–
CC1=C(C(=O)OC(C)(C)C)C(c2cccc3ccccc23)NC(=O)N1 (stereo not given),–,"inconclusive: 1.12 µM [inhibitor, single point]"
Cc1ccc(C(=O)N/N=C/c2ccc(-c3cccc(C(F)(F)F)c3)o2)cn1,–,"inconclusive: 39.8 µM [inhibitor, single point]"
CCC1CCCCN1C(=O)Cn1c(C(=O)OC)cc2ccsc21 (stereo not given),–,"inconclusive: 0.631 µM [inhibitor, single point]"
NC(=O)CCC1NC(=O)C(Cc2ccccc2)NC(=O)C(Cc2ccc(O)cc2)NC(=O)CCSSCC(C(=O)N2CCCC2C(=O)NC(CCCN=C(N)N)C(=O)NCC(N)=O)NC(=O)C(CC(N)=O)NC1=O (stereo not given),inactive: -10.9%,–
Cc1c(NC(=O)c2ccccc2)cccc1[N+](=O)[O-],inactive: 5.21%,–
Cc1ccccc1OCC(=O)N(CC(C)C)c1c(N)n(CC(C)C)c(=O)[nH]c1=O,–,"inconclusive: 1 µM [inhibitor, single point]"

Structure (SMILES),"activity change, negative = inhibition",Potency
CN(C)c1ccc(NC(=O)CSCc2nc3c(nnn3Cc3ccc(F)cc3)c(=O)[nH]2)cc1,–,"inconclusive: 31.6 µM [inhibitor, single point]"
Cc1cccc(OC(=O)c2cn(C)nc2C(F)(F)F)c1C,inconclusive: -92.6% [inhibitor] [at 0.501 µM],–
O=C(CSc1nnc(-c2ccco2)c(-c2ccco2)n1)Nc1ccccc1,–,"inconclusive: 20 µM [inhibitor, partial curve]"
Cc1c(-c2ccc(Cl)cc2)c(=O)oc2c(CN3CCCC3)c(O)ccc12,–,"inconclusive: 22.4 µM [inhibitor, single point]"
COc1ccccc1C(=O)Nc1ccc(S(=O)(=O)N2CCCCC2c2cccnc2)cc1 (stereo not given),–,"inconclusive: 10 µM [inhibitor, partial curve, poor fit]"
N#CCCn1c(=O)c(-c2cccs2)nc2cnc(Nc3ccccc3)nc21,inactive: -2.23%,–
CC(=O)c1ccc(NC(=O)c2nc3ccccc3n(C)c2=O)cc1,inactive: -5.57%,–
O=C(NNC(=O)c1cccc2ccccc12)c1ccccc1O,–,"inconclusive: 0.141 µM [inhibitor, full curve, poor fit]"
O=c1cnc2cncnc2n1Cc1ccc(F)cc1,inactive: -4.97%,–
CC(C)(C)OC(=O)N1CCC(NC(=O)c2nc[nH]c2C(=O)NCC(=O)OCc2ccccc2)CC1,–,"inconclusive: 10 µM [inhibitor, partial curve]"
COc1ccc(-c2csc(N(CCCN(C)C)C(=O)c3ccccc3C)n2)cc1,inactive: -8.56%,–
Cc1ccc(NC(=S)NNC(=S)Nc2cccc(C(F)(F)F)c2)cc1,–,"inconclusive: 8.91 µM [inhibitor, partial curve, poor fit]"
S=c1[nH]ncn1/N=C/c1ccccc1,inactive: -5.25%,–
O=C(Cn1c(=O)oc2ccc(Cl)cc21)NC1CCCCC1,–,"inconclusive: 11.2 µM [inhibitor, partial curve]"
CCc1cccc(OCC(=O)N(C)CC(=O)Nc2cccc(F)c2)c1,–,"inconclusive: 5.01 µM [inhibitor, single point]"
CCOC(=O)C1(CCCc2ccccc2)CCN(C(=O)CCCn2cncn2)CC1,–,"inconclusive: 25.1 µM [inhibitor, single point]"
CCn1c(SCC(=O)NCc2ccc3c(c2)OCO3)nnc1-c1cccs1,inactive: -7.9%,–
O=C(CN1CCN(C(=O)C2CCCO2)CC1)Nc1ccc(Cl)c(Cl)c1 (stereo not given),–,"inconclusive: 0.891 µM [inhibitor, full curve]"
O=C(CC1N=C2c3ccccc3N=C(SCC(=O)Nc3ccccc3F)N2C1=O)NCc1cccs1 (stereo not given),inactive: -5.21%,–
COc1ccc2oc(-c3ccc(C)c(NC(=O)c4ccc(N5CCOCC5)c([N+](=O)[O-])c4)c3)nc2c1,–,"inconclusive: 0.501 µM [inhibitor, single point]"
C/C(=N/NS(=O)(=O)c1cc(C)ccc1C)c1ccc2c(c1)OCO2,–,"inconclusive: 39.8 µM [inhibitor, single point]"
